Publication PMC3871820
Like-named read-outs stand apart in the source and are kept apart here. These are yes or no findings as the source states them, for the method shown.

Sequences of proteins named here, by UniProt entry; tags and fusion partners are left off.
UniProt O64647: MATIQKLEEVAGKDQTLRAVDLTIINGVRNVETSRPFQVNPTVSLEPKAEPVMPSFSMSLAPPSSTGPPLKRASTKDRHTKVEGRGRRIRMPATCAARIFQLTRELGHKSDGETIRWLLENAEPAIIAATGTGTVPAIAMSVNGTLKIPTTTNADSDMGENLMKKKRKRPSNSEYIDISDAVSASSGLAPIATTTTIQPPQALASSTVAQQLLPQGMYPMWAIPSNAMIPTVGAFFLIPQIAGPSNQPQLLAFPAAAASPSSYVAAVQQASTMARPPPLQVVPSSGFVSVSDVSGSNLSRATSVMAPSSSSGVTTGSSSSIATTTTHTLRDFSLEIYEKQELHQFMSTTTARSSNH
UniProt Q9LSD5: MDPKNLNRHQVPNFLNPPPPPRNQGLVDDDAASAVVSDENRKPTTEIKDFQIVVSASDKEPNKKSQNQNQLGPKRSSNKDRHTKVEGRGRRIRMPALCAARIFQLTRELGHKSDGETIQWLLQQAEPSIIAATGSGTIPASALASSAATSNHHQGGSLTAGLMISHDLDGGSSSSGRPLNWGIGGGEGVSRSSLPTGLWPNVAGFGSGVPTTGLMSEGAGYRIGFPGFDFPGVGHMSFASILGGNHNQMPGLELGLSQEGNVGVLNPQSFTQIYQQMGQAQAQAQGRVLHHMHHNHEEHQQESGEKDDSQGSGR

B1: TCP2 (protein, UniProt Q93V43 1-365)
chain: MIGDLMKNNNNGDVVDNEVNNRLSRWHHNSSRIIRVSRASGGKDRHSKVLTSKGPRDRRVRLSVSTALQFYDLQDRLGYDQPSKAVEWLIKAAEDSISELPSLNNTHFPTDDENHQNQTLTTVAANSLSKSACSSNSDTSKNSSGLSLSRSELRDKARERARERTAKETKERDHNHTSFTDLLNSGSDPVNSNRQWMASAPSSSPMEYFSSGLILGSGQQTHFPISTNSHPFSSISDHHHHHPHHQHQEFSFVPDHLISPAESNGGAFNLDFNMSTPSGAGAAVSAASGGGFSGFNRGTLQSNSTNQHQSFLANLQRFPTSESGGGPQFLFGALPAENHHHNHQFQLYYENGCRNSSEHKGKGKN
B2: TCP4 (protein, UniProt Q8LPR5 1-420)
chain: MSDDQFHHPPPPSSMRHRSTSDAADGGCGEIVEVQGGHIVRSTGRKDRHSKVCTAKGPRDRRVRLSAHTAIQFYDVQDRLGFDRPSKAVDWLIKKAKTSIDELAELPPWNPADAIRLAAANAKPRRTTAKTQISPSPPPPQQQQQQQQLQFGVGFNGGGAEHPSNNESSFLPPSMDSDSIADTIKSFFPVIGSSTEAPSNHNLMHNYHHQHPPDLLSRTNSQNQDLRLSLQSFPDGPPSLLHHQHHHHTSASASEPTLFYGQSNPLGFDTSSWEQQSSEFGRIQRLVAWNSGGGGGATDTGNGGGFLFAPPTPSTTSFQPVLGQSQQLYSQRGPLQSSYSPMIRAWFDPHHHHQSISTDDLNHHHHLPPPVHQSAIPGIGFASGEFSSGFRIPARFQGQEEEQHDGLTHKPSSASSISRH
B3: TCP10 (protein, UniProt O82277 1-361)
chain: MGLKGYSVGEGGGEIVEVQGGHIIRATGRKDRHSKVFTSKGPRDRRVRLSAHTAIQFYDVQDRLGYDRPSKAVDWLIKKAKTAIDKLELGETTTTTTRQEPVNTKPESPTLVFQRENNDQTQFVAANLDPEDAMKTFFPATTTTNGGGGTNINFQNYPHQDDNNMVSRTTTPPPNLSQDLGLSLHPFQGNNNTVVVPETNNFTTTHFDTFGRISGWNHHDLTMTSSSSSEHQQQEQEERSNGGFMVNHHPHHHHHQPSMMTLLNSQQQQVFLGGQQQQQQRGTLQSSLFPHSFRSWDHHQTTSDHHHHQNQASSMFASSSQYGSHGMMMMQGLSFPNTTRLLHGEEATQPNSSSSPPNSHL
B4: TCP24 (protein, UniProt Q9C758 1-324)
chain: MEVDEDIELQKHQEQQSRKLQRFSEDNTGLMRNWNNPSSRIIRVSRASGGKDRHSKVLTSKGLRDRRIRLSVATAIQFYDLQDRLGFDQPSKAVEWLINAASDSITDLPLLNTNFDHLDQNQNQTKSACSSGTSESSLLSLSRTEIRGKARERARERTAKDRDKDLQNAHSSFTQLLTGGFDQQPSNRNWTGGSDCFNPVQLQIPNSSSQEPMNHPFSFVPDYNFGISSSSSAINGGYSSRGTLQSNSQSLFLNNNNNITQRSSISSSSSSSSPMDSQSISFFMATPPPLDHHNHQLPETFDGRLYLYYGEGNRSSDDKAKERR

Key:
[1] = target: TCP9 (Arabidopsis thaliana) (UniProt O64647); experiment: two-hybrid; matrix-based GAL4 yeast two-hybrid by mating (baits in PJ69-4alpha, preys in PJ69-4a); selection on SD-Leu-Trp-Ade or SD-Leu-Trp-His with 5 and 10 mM 3-amino-1,2,4-triazole; scored after 5 days at 30 °C; BD baits of TCP1, 2, 4, 10, 12, 18, 20 and 24 excluded for auto-activation; positive only if reproducible with at least two selection markers
[2] = target: TCP9 (Arabidopsis thaliana) (UniProt O64647); experiment: as above; remark: listed apart in the source

Molecule	binding [1]	binding [2]
TCP20 (from UniProt Q9LSD5 1-314)	no binding	
B1		no binding
B2		no binding
B3		no binding
B4		no binding
